We go through 76 compounds from the supplement of paper PMC7830784.

The structures appear in SMILES notation. Counter-ions that a name gives are not always drawn. This is one part of the list. Repeats in this data set agree poorly, so a single value says little. Positions of bridges follow the written chain, without caps; N, C: chain ends. Non-standard residues stand in square brackets, D forms with d. Residues, ends and D or L forms follow the SMILES beside them.

The assay concerns Brugia pahangi adult female. In words: motility inhibition on day 3 relative to DMSO vehicle; higher = more active. Conditions: 10 µM; 3 days.
Take `Clc1ccc(COC(Cn2ccnc2)c2ccc(Cl)cc2Cl)c(Cl)c1` (stereo unspecified) [miconazole nitrate]: the “motility inhibition on day 3” value was determined as 95.5%.

In the case of `CC1CCc2c(N3CCC(O)CC3)c(F)cc3c(=O)c(C(=O)O)cn1c23` (stereo unspecified) [nadifloxacin], the “motility inhibition on day 3” value is less than 0%.

With `Cc1ccc(-c2ncc(Cl)cc2-c2ccc(S(C)(=O)=O)cc2)cn1` [Etoricoxib], the “motility inhibition on day 3” value amounted to 18.4%. The figure for `CC(C)(Oc1ccc(Cl)cc1)C(=O)O` [clofibric acid] is less than 0%; for `CN1CCCN=C1COC(=O)C(O)(c1ccccc1)C1CCCCC1` (stereo unspecified) [oxyphencyclimine hydrochloride] it is 12.5%. To `CC(=O)N[C@@H](CCC(N)=O)C(=O)O` [aceglutamide] belongs less than 0%; to `CC(=O)NO` [acetohydroxamic acid], less than 0%; to `O=C(O)C1CSCN1` (stereo unspecified) [timonacic], 13.5%. Regarding `CC(C)(S)[C@@H](N)C(=O)O` [penicillamine], the “motility inhibition on day 3” value is less than 0%.

For the compound `CCC(=O)OCC(=O)[C@@]1(OC(=O)CC)[C@H](C)CC2C3C([C@@H](O)C[C@@]21C)[C@@]1(C)C=CC(=O)C=C1C[C@H]3Cl` (stereo partly specified) [alclometazone dipropionate], the “motility inhibition on day 3” value turned out to be 3.25%. On to `O=C1O[C@H](CO)[C@@H](O)[C@H](O)[C@H]1O` [gluconolactone], for which the “motility inhibition on day 3” value worked out at 8.32%. To `CCCCCCCCCCC[C@@H](C[C@@H]1OC(=O)[C@H]1CCCCCC)OC(=O)[C@H](CC(C)C)NC=O` [orlistat] belongs less than 0%; to `CCCN(CCC)C(=O)C(CCC(=O)O)NC(=O)c1ccccc1` (stereo unspecified) [Proglumide], 24.1%. Take `CCN1C(=O)NC(c2ccccc2)C1=O` (stereo unspecified) [ethotoin]: the “motility inhibition on day 3” value was determined as 3.38%. Turning to `CN1CCC(=C2c3ccccc3CC(=O)c3sccc32)CC1` [ketotifen fumarate], the “motility inhibition on day 3” value was found to be 47.7%. The figure for `COc1ccccc1N1CCN(CC(O)COc2cccc3ccccc23)CC1` (stereo unspecified) [Naftopidil dihydrochloride] is 2.28%; for `COc1cc(OC)c(C(=O)CCCN2CCCC2)c(OC)c1` [buflomedil hydrochloride] it is 20.1%. To `O.O.O.O.O=C([O-])CC(O)(CC(=O)[O-])C(=O)[O-].[Li+].[Li+].[Li+]` [lithium citrate] belongs 5.55%. To `N#CC(c1ccc(Cl)cc1)c1c(Cl)cc(-n2ncc(=O)[nH]c2=O)cc1Cl` (stereo unspecified) [diclazuril] belongs less than 0%. In the case of `Cn1ccnc1S` [methimazole], the “motility inhibition on day 3” value was 45.7%.

Regarding `Oc1ccc(Cl)c2cccnc12` [cloxyquin], the “motility inhibition on day 3” value is 86.4%.

In the case of `Nc1c(Br)cc(Br)cc1CN[C@H]1CC[C@H](O)CC1` [ambroxol hydrochloride], the “motility inhibition on day 3” value was less than 0%. The figure for `CCC(=O)c1ccc(O)cc1` [paroxypropione] is less than 0%.

Turning to `CC(C)(Sc1cc(C(C)(C)C)c(O)c(C(C)(C)C)c1)Sc1cc(C(C)(C)C)c(O)c(C(C)(C)C)c1` [probucol], the “motility inhibition on day 3” value was less than 0%. On to `COc1cc(Cc2cnc(N)nc2N)cc(OC)c1OC` [Trimethoprim], for which the “motility inhibition on day 3” value is 13.4%. To `COCC1=C(C(=O)OC(C)OC(=O)OC(C)C)N2C(=O)[C@@H](NC(=O)/C(=N\OC)c3csc(N)n3)[C@H]2SC1` (stereo partly specified) [cefpodoxime proxetil] belongs less than 0%; to `CCN(CC)CCOC(=O)C(c1ccccc1)C1CCCCC1` (stereo unspecified) [drofenine hydrochloride], less than 0%. To `CCCCC(CC)CN1CN(CC(CC)CCCC)CC(C)(N)C1` (stereo unspecified) [hexetidine] belongs 99.8%. To `CO[C@@]1(NC(=O)Cc2cccs2)C(=O)N2C(C(=O)O)=C(COC(N)=O)CS[C@@H]21` [cefoxitin sodium] belongs less than 0%; to `CC(=O)c1ccc2c(c1)N(CCCN1CCC(CCO)CC1)c1ccccc1S2` [piperacetazine], 35.4%; to `CNCC[C@H](Oc1cccc2ccccc12)c1cccs1` [duloxetine hydrochloride], 29.2%. As for `O=C(CCCN1CCC(O)(c2ccc(Br)cc2)CC1)c1ccc(F)cc1` [bromperidol], the “motility inhibition on day 3” value was less than 0%.

On to `C=C[C@H]1CN2CC[C@H]1C[C@@H]2[C@@H](O)c1ccnc2ccc(OC)cc12` [quinidine gluconate], for which the “motility inhibition on day 3” value amounted to 21%.

In the case of `Cc1c(C(N)=O)cc([N+](=O)[O-])cc1[N+](=O)[O-]` [dinitolmide], the “motility inhibition on day 3” value is less than 0%. On to `C[C@]12CC[C@H]3C(=CCc4cc(O)ccc43)[C@@H]1CCC2=O` [equilin], for which the “motility inhibition on day 3” value stood at 0.00121%. To `C[C@]12C=CC(=O)C=C1CC[C@@H]1[C@@H]2[C@@H](O)C[C@@]2(C)[C@H]1CC[C@]2(O)C(=O)COP(=O)(O)O` [prednisolone sodium phosphate] belongs 5.5%; to `N=C(N)N` [guanidine carbonate], less than 0%. The figure for `CN1C(C(=O)Nc2ccccn2)=C(O)c2sccc2S1(=O)=O` [tenoxicam] is 6.75%.

On to `N#Cc1ccc2[nH]cc(CCCCN3CCN(c4ccc5oc(C(N)=O)cc5c4)CC3)c2c1` [vilazodone hydrochloride], for which the “motility inhibition on day 3” value is 22.6%. The figure for `Cc1ncc([N+](=O)[O-])n1CC(O)CCl` (stereo unspecified) [ornidazole] is less than 0%; for `CN(C)c1ccc2nc3ccc(=[N+](C)C)cc-3sc2c1` [methylene blue] it is 99.4%. The figure for `Cc1cccc(C)c1NC(=O)C1CCCCN1C` (stereo unspecified) [mepivacaine hydrochloride] is less than 0%; for `COc1ccc(C2C(=O)c3ccccc3C2=O)cc1` [anisindione] it is 8.82%. To `O=C(Nc1ccccc1)c1ccccc1O` [salicylanilide] belongs less than 0%; to `C#C[C@]1(O)CC[C@H]2[C@@H]3CCc4cc(OC5CCCC5)ccc4[C@H]3CC[C@@]21C` [quinestrol], 5.26%. For the compound `Cc1ccnc2c1NC(=O)c1cccnc1N2C1CC1` [nevirapine], the “motility inhibition on day 3” value was 17.7%. To `CN(C)CCC=C1c2ccccc2CCc2ccccc21` [Amitriptyline hydrochloride] belongs 37.8%; to `Cc1[nH]c(=O)c(C#N)cc1-c1ccncc1` [milrinone], less than 0%. Regarding `CS(=O)(=O)c1ccc(C2=C(c3ccccc3)C(=O)OC2)cc1` [rofecoxib], the “motility inhibition on day 3” value worked out at 10.3%. To `Cn1c(=O)c2[nH]cnc2n(C)c1=O` [Aminophylline] belongs 6.89%.

Regarding `Oc1ccc(Cl)c2c1CCC2` [chlorindanol], the “motility inhibition on day 3” value was less than 0%. Take `CC(C)COCC(CN(Cc1ccccc1)c1ccccc1)N1CCCC1` (stereo unspecified) [Bepridil hydrochloride]: the “motility inhibition on day 3” value turned out to be 56.6%.

Take `C=NC(C(=O)NC1C(=O)N2C1SC(C)(C)C2C(=O)O)c1ccccc1` (stereo unspecified) [metampicillin sodium]: the “motility inhibition on day 3” value was 4.56%. On to `CCC(CC)(CC(=O)Nc1cccc(/C=C/c2nc(C3CCC3)cs2)c1)C(=O)O` [cinalukast], for which the “motility inhibition on day 3” value is less than 0%. The figure for `NC(=O)c1ncn([C@@H]2O[C@H](CO)[C@@H](O)[C@H]2O)n1` [ribavirin] is less than 0%. As to `CCOC(=O)[C@H](CCc1ccccc1)N[C@@H](C)C(=O)N1[C@H](C(=O)O)C[C@@H]2CCC[C@@H]21` [ramipril], the “motility inhibition on day 3” value was determined as 2.81%. To `NS(=O)(=O)c1cc2c(cc1Cl)N=CNS2(=O)=O` [Chlorothiazide] belongs 16.3%; to `O=C(CCCl)NCc1ccccc1` [beclamide], 13.1%; to `CN[C@H](CC(C)C)C(=O)N[C@H]1C(=O)N[C@@H](CC(N)=O)C(=O)N[C@H]2C(=O)N[C@H]3C(=O)N[C@H](C(=O)N[C@H](C(=O)O)c4cc(O)cc(O)c4-c4cc3ccc4O)[C@H](O)c3ccc(c(Cl)c3)Oc3cc2cc(c3O[C@@H]2O[C@H](CO)[C@@H](O)[C@H](O)[C@H]2O[C@H]2C[C@](C)(N)[C@H](O)[C@H](C)O2)Oc2ccc(cc2Cl)[C@H]1O` [vancomycin hydrochloride], 26.6%.

With `CNS(=O)(=O)Cc1ccc2[nH]cc(CCN(C)C)c2c1` [sumatriptan succinate], the “motility inhibition on day 3” value was determined as 3.77%. To `CC(C)[C@@H]1NC(=O)[C@H](CCCCN)NC(=O)[C@@H](Cc2c[nH]c3ccccc23)NC(=O)[C@H](Cc2ccc(O)cc2)NC(=O)[C@@H](NC(=O)[C@H](N)Cc2ccccc2)CSSC[C@@H](C(=O)N[C@@H](Cc2c[nH]c3ccccc23)C(N)=O)NC1=O` [Vapreotide acetate salt] (H-[dF]CY[dW]KVCW-NH2; disulfide 2-7) belongs 1.15%; to `S=C1SCN(Cc2ccccc2)CN1Cc1ccccc1` [sulbentine], 22.6%. `Cc1cc(C2CCCCC2)n(O)c(=O)c1` [ciclopirox olamine]: the “motility inhibition on day 3” value came out at 95.1%. The figure for `COc1cc(C(=O)NS(=O)(=O)c2ccccc2C)ccc1Cc1cn(C)c2ccc(NC(=O)OC3CCCC3)cc12` is 6.41%. To `O=C(O)c1cc(=O)c2ccccc2o1` [chromocarb] belongs 4.61%; to `NS(=O)(=O)c1cc(C(=O)O)c(NCc2ccco2)cc1Cl` [furosemide], 37.2%. The figure for `N=C(N)NC(=O)c1nc(Cl)c(N)nc1N` [Amiloride hydrochloride] is less than 0%; for `COc1ccc(Cc2cnc(N)nc2N)cc1OC` [diaveridine] it is less than 0%.

In the case of `CC(Cc1ccccc1)(NC(=O)CN)c1ccccc1` (stereo unspecified) [remacemide hydrochloride], the “motility inhibition on day 3” value turned out to be 2.04%. To `CCCCC1=NC2(CCCC2)C(=O)N1Cc1ccc(-c2ccccc2-c2nnn[nH]2)cc1` [irbesartan] belongs 9.44%; to `CC[C@H]1OC(=O)[C@H](C)[C@@H](O[C@H]2C[C@@](C)(OC)[C@@H](O)[C@H](C)O2)[C@H](C)[C@@H](O[C@@H]2O[C@H](C)C[C@H](N(C)C)[C@H]2O)[C@](C)(OC)C[C@@H](C)C(=O)[C@H](C)[C@@H](O)[C@]1(C)O` [clarithromycin], 0.273%. The figure for `O=C(Nc1ccc(C(=O)O)c(O)c1)c1ccccc1` [benzoylpas] is 28%; for `CCCCOC(=O)c1ccc(N)cc1` [butamben] it is 66.2%. The figure for `COC(=O)[C@@H]1[C@H]2C[C@H]3c4[nH]c5ccccc5c4CCN3C[C@@H]2CC[C@@H]1O` [yohimbine hydrochloride] is less than 0%; for `COC(=O)[C@@H]1[C@H]2C[C@H]3c4[nH]c5ccccc5c4CCN3C[C@@H]2CC[C@@H]1O` [Yohimbine hydrochloride] it is 0.611%. In the case of `C[C@]12C=CC(=O)C=C1CC[C@@H]1[C@@H]2[C@@H](O)C[C@@]2(C)[C@H]1CC[C@]2(O)C(=O)COC(=O)CCC(=O)O` [prednisolone hemisuccinate], the “motility inhibition on day 3” value was 0.171%.
